The list shows a part of the results.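 The calls were made as follows: active = dose-dependent thermal stabilisation significant by F-test of dose-response against flat model at 10% FDR; inactive = not significant.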
compound: Nc1nc2c(ncn2[C@@H]2O[C@H](COP(=O)(O)OP(=O)(O)OP(=O)(O)O)[C@@H](O)[C@H]2O)c(=O)[nH]1; assay: dose-dependent thermal stabilisation call (2D-TPP, DLPTP, 10% FDR) (binary (1 = stabilised)); higher = stabilised by the compound; conditions: system: Jurkat gel-filtered lysate; concentration range 1-500 µM

Chains of the proteins cited; added tags and fusions are not shown. Lines headed by an entry give the natural chain unless they say otherwise; changes in a name come on top.
UniProt Q15542, whole entry: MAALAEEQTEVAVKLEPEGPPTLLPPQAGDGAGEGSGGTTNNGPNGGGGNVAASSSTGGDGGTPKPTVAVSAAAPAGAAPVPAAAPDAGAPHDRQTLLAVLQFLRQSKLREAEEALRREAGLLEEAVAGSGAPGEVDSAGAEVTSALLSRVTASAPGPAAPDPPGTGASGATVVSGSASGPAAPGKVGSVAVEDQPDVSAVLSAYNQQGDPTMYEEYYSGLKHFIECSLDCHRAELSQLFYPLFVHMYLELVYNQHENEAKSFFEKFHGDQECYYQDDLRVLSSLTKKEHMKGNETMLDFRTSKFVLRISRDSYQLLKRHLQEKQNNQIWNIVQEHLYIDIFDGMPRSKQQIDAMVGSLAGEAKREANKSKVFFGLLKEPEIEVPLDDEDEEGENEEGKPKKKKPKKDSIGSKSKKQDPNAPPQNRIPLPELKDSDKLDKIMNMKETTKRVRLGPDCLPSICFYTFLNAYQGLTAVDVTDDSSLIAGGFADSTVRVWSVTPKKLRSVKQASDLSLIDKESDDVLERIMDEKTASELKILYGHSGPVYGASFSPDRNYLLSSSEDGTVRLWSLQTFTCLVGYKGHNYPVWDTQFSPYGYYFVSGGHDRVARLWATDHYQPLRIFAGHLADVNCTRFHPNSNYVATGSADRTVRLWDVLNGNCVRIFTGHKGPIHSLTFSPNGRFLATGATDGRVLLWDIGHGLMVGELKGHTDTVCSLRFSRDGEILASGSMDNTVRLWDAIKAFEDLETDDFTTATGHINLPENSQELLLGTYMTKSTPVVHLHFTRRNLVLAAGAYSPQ
UniProt Q9H0F6: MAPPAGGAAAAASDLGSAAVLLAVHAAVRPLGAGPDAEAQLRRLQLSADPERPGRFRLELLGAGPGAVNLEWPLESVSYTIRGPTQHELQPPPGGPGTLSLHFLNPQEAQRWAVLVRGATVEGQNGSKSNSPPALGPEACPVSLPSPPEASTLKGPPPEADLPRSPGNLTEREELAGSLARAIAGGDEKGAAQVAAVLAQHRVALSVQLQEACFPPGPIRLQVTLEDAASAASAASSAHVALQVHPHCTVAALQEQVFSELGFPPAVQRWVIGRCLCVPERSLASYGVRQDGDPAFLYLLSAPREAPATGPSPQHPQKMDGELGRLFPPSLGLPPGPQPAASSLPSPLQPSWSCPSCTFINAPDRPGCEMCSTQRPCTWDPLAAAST
UniProt Q8IYB5: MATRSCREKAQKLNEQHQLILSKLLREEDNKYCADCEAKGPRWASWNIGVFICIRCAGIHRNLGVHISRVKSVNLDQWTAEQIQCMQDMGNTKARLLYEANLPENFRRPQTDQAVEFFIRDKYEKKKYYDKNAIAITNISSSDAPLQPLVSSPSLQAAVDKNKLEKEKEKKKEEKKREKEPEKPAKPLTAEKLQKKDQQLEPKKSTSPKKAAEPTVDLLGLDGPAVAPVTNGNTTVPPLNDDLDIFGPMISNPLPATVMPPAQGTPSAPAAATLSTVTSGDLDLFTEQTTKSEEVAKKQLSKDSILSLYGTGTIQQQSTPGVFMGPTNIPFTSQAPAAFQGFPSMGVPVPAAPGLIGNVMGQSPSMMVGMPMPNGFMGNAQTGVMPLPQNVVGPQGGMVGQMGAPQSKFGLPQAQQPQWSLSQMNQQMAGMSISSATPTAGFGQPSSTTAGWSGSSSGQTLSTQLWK
UniProt Q9UQ35: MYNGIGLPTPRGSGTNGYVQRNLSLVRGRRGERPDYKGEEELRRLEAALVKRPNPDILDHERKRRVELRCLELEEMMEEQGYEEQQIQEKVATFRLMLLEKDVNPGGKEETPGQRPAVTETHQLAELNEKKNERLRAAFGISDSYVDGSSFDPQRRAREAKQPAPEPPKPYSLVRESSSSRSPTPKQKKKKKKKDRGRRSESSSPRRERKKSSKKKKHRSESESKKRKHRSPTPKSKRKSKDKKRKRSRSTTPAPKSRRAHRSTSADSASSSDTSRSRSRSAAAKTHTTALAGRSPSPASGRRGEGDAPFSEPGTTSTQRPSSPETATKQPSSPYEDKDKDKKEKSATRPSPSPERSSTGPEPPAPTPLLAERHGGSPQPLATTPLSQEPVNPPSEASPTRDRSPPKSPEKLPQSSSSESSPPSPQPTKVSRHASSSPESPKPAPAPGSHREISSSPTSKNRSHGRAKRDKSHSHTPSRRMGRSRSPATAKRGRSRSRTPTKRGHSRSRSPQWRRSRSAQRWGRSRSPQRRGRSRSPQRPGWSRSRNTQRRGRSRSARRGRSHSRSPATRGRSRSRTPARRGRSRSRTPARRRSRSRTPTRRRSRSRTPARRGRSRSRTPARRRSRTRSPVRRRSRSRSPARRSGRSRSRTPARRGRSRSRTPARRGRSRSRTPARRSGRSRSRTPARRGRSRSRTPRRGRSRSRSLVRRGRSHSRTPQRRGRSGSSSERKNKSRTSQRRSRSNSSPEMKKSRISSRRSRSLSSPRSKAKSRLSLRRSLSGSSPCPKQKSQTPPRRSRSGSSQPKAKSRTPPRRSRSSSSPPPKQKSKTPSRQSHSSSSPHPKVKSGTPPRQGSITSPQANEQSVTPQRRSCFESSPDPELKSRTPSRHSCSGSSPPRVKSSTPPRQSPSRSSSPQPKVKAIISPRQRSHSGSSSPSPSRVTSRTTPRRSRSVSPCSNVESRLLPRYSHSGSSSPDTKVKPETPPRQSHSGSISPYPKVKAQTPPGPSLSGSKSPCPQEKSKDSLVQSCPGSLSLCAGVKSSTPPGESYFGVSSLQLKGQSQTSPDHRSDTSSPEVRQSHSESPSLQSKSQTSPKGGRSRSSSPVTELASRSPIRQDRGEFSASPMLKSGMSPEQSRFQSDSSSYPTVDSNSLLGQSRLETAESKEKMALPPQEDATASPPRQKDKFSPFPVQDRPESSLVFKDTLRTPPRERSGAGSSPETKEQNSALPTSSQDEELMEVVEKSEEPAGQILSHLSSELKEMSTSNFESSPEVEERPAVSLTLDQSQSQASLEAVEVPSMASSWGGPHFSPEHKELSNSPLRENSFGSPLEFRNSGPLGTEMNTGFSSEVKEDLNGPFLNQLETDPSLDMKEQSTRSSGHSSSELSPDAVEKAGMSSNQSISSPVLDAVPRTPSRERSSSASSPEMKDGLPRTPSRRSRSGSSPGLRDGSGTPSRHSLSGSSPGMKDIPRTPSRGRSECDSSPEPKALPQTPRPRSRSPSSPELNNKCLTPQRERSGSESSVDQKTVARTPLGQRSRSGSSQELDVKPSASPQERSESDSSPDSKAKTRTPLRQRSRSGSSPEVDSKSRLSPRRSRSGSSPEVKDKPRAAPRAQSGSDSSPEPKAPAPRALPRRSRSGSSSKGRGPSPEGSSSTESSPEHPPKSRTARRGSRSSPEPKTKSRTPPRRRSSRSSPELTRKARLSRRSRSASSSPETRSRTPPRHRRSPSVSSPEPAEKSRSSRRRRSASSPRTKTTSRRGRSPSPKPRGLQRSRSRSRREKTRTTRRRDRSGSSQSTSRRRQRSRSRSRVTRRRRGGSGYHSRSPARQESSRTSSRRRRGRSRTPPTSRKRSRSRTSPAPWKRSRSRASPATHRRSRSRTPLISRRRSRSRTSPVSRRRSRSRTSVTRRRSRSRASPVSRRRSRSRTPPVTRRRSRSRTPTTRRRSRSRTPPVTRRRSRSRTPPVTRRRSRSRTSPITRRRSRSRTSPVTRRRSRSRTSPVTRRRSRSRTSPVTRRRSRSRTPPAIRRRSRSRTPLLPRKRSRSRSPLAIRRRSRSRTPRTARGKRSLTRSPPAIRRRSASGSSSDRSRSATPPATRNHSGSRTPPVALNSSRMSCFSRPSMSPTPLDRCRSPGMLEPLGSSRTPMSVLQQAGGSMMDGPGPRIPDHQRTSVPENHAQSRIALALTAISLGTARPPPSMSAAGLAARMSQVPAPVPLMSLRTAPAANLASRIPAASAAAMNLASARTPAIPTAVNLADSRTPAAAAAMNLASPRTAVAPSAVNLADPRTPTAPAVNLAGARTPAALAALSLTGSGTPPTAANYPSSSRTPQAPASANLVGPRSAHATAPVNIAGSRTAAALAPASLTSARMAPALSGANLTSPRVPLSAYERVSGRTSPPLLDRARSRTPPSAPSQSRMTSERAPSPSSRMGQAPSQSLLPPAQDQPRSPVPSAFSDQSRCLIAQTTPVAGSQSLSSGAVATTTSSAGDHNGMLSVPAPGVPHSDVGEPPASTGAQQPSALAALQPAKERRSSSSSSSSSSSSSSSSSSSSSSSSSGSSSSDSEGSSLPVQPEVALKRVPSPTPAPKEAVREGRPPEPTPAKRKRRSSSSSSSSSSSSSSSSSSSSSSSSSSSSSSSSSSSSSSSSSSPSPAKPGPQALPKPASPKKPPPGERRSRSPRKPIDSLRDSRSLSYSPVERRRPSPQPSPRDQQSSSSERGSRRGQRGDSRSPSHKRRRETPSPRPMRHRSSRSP
UniProt O75410: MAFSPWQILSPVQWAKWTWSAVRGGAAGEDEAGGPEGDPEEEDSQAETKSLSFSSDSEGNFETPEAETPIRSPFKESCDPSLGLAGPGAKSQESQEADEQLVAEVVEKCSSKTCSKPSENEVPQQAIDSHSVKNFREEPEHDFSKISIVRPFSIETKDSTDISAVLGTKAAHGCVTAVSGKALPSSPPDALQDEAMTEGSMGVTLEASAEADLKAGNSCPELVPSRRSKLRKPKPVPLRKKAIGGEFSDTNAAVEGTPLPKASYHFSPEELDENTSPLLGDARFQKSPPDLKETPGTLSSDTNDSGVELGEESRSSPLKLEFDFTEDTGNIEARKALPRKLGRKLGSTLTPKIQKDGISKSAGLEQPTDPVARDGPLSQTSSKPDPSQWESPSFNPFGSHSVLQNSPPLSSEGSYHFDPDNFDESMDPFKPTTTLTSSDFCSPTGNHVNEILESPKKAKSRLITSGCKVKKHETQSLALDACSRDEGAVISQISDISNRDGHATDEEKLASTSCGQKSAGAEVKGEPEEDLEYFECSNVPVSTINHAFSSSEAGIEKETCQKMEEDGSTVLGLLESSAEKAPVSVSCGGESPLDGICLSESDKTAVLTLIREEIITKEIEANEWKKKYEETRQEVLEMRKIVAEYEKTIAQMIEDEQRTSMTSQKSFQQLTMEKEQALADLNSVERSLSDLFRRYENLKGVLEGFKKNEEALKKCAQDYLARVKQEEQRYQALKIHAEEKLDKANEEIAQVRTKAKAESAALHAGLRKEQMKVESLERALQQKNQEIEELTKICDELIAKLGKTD
UniProt P53597: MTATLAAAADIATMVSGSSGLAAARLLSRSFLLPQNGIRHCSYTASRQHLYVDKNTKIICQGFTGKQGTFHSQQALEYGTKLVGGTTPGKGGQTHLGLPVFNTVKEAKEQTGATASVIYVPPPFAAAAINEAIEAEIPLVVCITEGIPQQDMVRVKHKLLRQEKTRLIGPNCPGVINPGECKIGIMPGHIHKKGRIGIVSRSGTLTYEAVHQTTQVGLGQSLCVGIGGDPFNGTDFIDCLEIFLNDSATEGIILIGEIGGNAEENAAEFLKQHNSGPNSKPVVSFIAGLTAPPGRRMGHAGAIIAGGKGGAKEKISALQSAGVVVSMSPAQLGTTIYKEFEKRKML
UniProt O43805: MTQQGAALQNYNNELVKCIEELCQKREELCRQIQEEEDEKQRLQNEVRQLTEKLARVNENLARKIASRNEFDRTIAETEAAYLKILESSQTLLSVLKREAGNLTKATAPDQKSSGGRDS
UniProt A1X283: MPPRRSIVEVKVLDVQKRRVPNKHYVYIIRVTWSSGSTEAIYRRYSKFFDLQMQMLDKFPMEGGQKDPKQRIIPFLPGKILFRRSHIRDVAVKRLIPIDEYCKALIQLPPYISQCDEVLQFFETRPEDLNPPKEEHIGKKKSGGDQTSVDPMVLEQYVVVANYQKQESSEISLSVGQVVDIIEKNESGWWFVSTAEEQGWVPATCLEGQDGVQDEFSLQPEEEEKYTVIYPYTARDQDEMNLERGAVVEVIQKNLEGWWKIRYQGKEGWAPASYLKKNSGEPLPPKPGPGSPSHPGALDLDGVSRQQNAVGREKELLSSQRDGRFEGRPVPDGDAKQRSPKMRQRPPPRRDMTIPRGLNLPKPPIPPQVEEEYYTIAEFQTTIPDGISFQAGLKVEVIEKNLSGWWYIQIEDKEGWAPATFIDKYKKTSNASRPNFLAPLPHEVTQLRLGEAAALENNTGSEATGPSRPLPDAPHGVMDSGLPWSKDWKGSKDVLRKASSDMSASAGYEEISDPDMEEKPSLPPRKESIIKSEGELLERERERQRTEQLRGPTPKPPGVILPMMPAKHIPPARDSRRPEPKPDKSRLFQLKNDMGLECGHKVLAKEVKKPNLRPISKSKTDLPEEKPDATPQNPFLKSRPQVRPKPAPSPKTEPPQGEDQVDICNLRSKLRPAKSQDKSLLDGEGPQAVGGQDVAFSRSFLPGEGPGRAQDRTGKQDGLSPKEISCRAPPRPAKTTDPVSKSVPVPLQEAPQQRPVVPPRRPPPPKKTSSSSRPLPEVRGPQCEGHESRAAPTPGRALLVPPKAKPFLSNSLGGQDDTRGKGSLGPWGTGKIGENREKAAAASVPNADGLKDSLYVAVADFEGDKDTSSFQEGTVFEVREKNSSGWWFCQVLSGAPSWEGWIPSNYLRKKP

| Target | dose-dependent thermal stabilisation call |
| --- | --- |
| TAF5 (UniProt Q15542) | active: 1 |
| TAF10 (UniProt Q12962) | inactive: 0 |
| SNX29 (UniProt Q8TEQ0) | inactive: 0 |
| STXBP4 (UniProt Q6ZWJ1) | inactive: 0 |
| SHARPIN (UniProt Q9H0F6) | inactive: 0 |
| SMG1 (UniProt Q96Q15) | inactive: 0 |
| TACC3 (UniProt Q9Y6A5) | inactive: 0 |
| STIP1 (UniProt P31948) | inactive: 0 |
| SMARCB1 (UniProt Q12824) | inactive: 0 |
| SNRNP40 (UniProt Q96DI7) | inactive: 0 |
| SIRT2 (UniProt Q8IXJ6) | inactive: 0 |
| STIL (UniProt Q15468) | inactive: 0 |
| STAU1 (UniProt O95793) | inactive: 0 |
| SMAP1 (UniProt Q8IYB5) | inactive: 0 |
| SRRM2 (UniProt Q9UQ35) | inactive: 0 |
| SYNCRIP (UniProt O60506) | inactive: 0 |
| STAT5B (UniProt P51692) | inactive: 0 |
| TACC1 (UniProt O75410) | inactive: 0 |

Reformatted as comma-separated lines: part of the list above.
Target,dose-dependent thermal stabilisation call
SIRT2 (UniProt Q8IXJ6),inactive: 0
STAT5B (UniProt P51692),inactive: 0

(listing goes on)

| Target | dose-dependent thermal stabilisation call |
| --- | --- |
| SHMT2 (UniProt P34897) | active: 1 |
| SIN3A (UniProt Q96ST3) | inactive: 0 |
| SH3KBP1 (UniProt Q96B97) | inactive: 0 |
| SSBP1 (UniProt Q04837) | inactive: 0 |
| SPAG7 (UniProt O75391) | inactive: 0 |
| SREK1IP1 (UniProt Q8N9Q2) | inactive: 0 |
| SMARCC2 (UniProt Q8TAQ2) | inactive: 0 |
| SURF6 (UniProt O75683) | inactive: 0 |
| SYMPK (UniProt Q92797) | active: 1 |
| SUCLG1 (UniProt P53597) | active: 1 |
| SSNA1 (UniProt O43805) | inactive: 0 |
| SUGP1 (UniProt Q8IWZ8) | inactive: 0 |
| SRSF7 (UniProt Q16629) | active: 1 |
| STXBP5 (UniProt Q5T5C0) | inactive: 0 |
| SH3PXD2B (UniProt A1X283) | inactive: 0 |
| SPRYD4 (UniProt Q8WW59) | inactive: 0 |
| SMG9 (UniProt Q9H0W8) | inactive: 0 |
| SHTN1 (UniProt A0MZ66) | inactive: 0 |
